Source: paper PMC7181393
These are yes or no findings as the source states them, for the method shown. Binding seen in cells or lysates may run through a third protein. Some binding calls cover weakened binding; strength is not graded here.

The chains behind the UniProt entries cited, without tags or fusion partners. Residues count along the entry.
UniProt P29459, residues 23-219: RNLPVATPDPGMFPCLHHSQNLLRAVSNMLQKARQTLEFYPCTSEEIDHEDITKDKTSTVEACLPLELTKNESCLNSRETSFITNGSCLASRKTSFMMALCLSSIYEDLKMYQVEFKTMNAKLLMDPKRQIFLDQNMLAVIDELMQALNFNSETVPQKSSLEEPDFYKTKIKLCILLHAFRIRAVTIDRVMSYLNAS

Columns and labels:
[1] = molecular target: IL-12A (human (endogenous in tonsillar CD4+ T cells)) (UniProt P29459); test: co-IP; lysate of isolated human tonsillar CD4+ T cells (1 x 10^7 cells in RIPA buffer without SDS), with or without SAg-Sau stimulation for 48 h, brefeldin A for the last 4 h; immunoprecipitated with anti-human IL-12A mAb (clone 27537) on sheep anti-mouse IgG Dynabeads, 4 °C; blotted with anti-human EBI3 (clone A15058A)
[2] = molecular target: human IL-12A expressed in CHO cells (human) (UniProt P29459); test: co-IP; secreted protein of CHO cell clones (C7, C8, C14, C15) co-transfected with human IL-12A and EBI3 plasmids; co-immunoprecipitation and Western blotting

B1: EBI3 (protein, UniProt Q14213 21-229)
chain: RKGPPAALTLPRVQCRASRYPIAVDCSWTLPPAPNSTSPVSFIATYRLGMAARGHSWPCLQQTPTSTSCTITDVQLFSMAPYVLNVTAVHPWGSSSSFVPFITEHIIKPDPPEGVRLSPLAERQLQVQWEPPGSWPFPEIFSLKYWIRYKRQGAARFHRVGPIEATSFILRAVRPRARYYVQVAAQDLTDYGELSDWSLPATATMSLGK
Question: How did the binding [1] turn out when B1 was run?
Answer: binds

B2: human EBI3 expressed in CHO cells (protein, UniProt Q14213 21-229)
chain: RKGPPAALTLPRVQCRASRYPIAVDCSWTLPPAPNSTSPVSFIATYRLGMAARGHSWPCLQQTPTSTSCTITDVQLFSMAPYVLNVTAVHPWGSSSSFVPFITEHIIKPDPPEGVRLSPLAERQLQVQWEPPGSWPFPEIFSLKYWIRYKRQGAARFHRVGPIEATSFILRAVRPRARYYVQVAAQDLTDYGELSDWSLPATATMSLGK
Question: How did the binding [2] turn out when B2 was run?
Answer: binds
